These are yes or no findings as the source states them, for the method shown. A result given as binding can be weak or reduced; the word gives no strength. Sequences can lack the tags named with a protein. For some assays here: In cells and extracts the contact can be indirect.
Legend:
[1] = biological target: T1, PSY1 fused with the N-terminus of LUC (PSY1-nLUC) (tomato (Solanum lycopersicum)) (UniProt P08196); assay: split reporter; split luciferase complementation imaging (LCI): cLUC and nLUC fusions co-expressed in N. benthamiana leaves, 48 h, 1 mM luciferin; empty cLUC or nLUC vectors as negative controls
T1 sequence: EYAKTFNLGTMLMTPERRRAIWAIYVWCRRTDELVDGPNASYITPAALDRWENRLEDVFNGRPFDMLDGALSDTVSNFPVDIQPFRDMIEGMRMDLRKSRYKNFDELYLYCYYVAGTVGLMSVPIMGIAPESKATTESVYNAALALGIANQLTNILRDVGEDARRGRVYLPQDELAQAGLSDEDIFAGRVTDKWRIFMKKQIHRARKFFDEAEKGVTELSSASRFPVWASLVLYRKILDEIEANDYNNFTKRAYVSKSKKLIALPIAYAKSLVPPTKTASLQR

[2] = biological target: Plastid Protein Sensing RING E3 ligase 1 (PPSR1), GAL4 two-hybrid fusion (tomato (Solanum lycopersicum)); assay: two-hybrid; pairwise, Matchmaker GAL4 Two-Hybrid System 3; AD and BD fusions co-transformed into S. cerevisiae, plated on -LW and -LWHA with X-α-gal; empty vectors as negative controls

Molecule	binding [1]	binding [2]
PPSR1 fused with the C-terminus of LUC (cLUC-PPSR1) (tomato (Solanum lycopersicum)) (enzyme)	binds	–
PSY1^130–238, GAL4 activation domain fusion (domain or fragment, UniProt P08196 130-238) EYAKTFNLGTMLMTPERRRAIWAIYVWCRRTDELVDGPNASYITPAALDRWENRLEDVFNGRPFDMLDGALSDTVSNFPVDIQPFRDMIEGMRMDLRKSRYKNFDELYL	–	binds
PSY1 without transit peptide (PSY1^63–412), GAL4 activation domain fusion (domain or fragment, UniProt P08196 63-412) SAILATPSGERTMTSEQMVYDVVLRQAALVKRQLRSTNELEVKPDIPIPGNLGLLSEAYDRCGEVCAEYAKTFNLGTMLMTPERRRAIWAIYVWCRRTDELVDGPNASYITPAALDRWENRLEDVFNGRPFDMLDGALSDTVSNFPVDIQPFRDMIEGMRMDLRKSRYKNFDELYLYCYYVAGTVGLMSVPIMGIAPESKATTESVYNAALALGIANQLTNILRDVGEDARRGRVYLPQDELAQAGLSDEDIFAGRVTDKWRIFMKKQIHRARKFFDEAEKGVTELSSASRFPVWASLVLYRKILDEIEANDYNNFTKRAYVSKSKKLIALPIAYAKSLVPPTKTASLQR	–	binds
PSY1^130–412, GAL4 activation domain fusion (domain or fragment, UniProt P08196 130-412) EYAKTFNLGTMLMTPERRRAIWAIYVWCRRTDELVDGPNASYITPAALDRWENRLEDVFNGRPFDMLDGALSDTVSNFPVDIQPFRDMIEGMRMDLRKSRYKNFDELYLYCYYVAGTVGLMSVPIMGIAPESKATTESVYNAALALGIANQLTNILRDVGEDARRGRVYLPQDELAQAGLSDEDIFAGRVTDKWRIFMKKQIHRARKFFDEAEKGVTELSSASRFPVWASLVLYRKILDEIEANDYNNFTKRAYVSKSKKLIALPIAYAKSLVPPTKTASLQR	–	binds
PSY1^239–412, GAL4 activation domain fusion (domain or fragment, UniProt P08196 239-412) YCYYVAGTVGLMSVPIMGIAPESKATTESVYNAALALGIANQLTNILRDVGEDARRGRVYLPQDELAQAGLSDEDIFAGRVTDKWRIFMKKQIHRARKFFDEAEKGVTELSSASRFPVWASLVLYRKILDEIEANDYNNFTKRAYVSKSKKLIALPIAYAKSLVPPTKTASLQR	–	no binding
